Measurements: publication PMC1526750
No constants are given. Whether binding was seen depends on the method and setting. Binding seen in cells or lysates may run through a third protein. Some entries that bind do so weakly or less than the wild type.

Amino acid sequences for entries named in this document (tags omitted). A change or cut given only in a name is not applied to a line headed by its entry. Chains listed by the source or under a name are the forms on record and can include a tag or linker.
UniProt Q9H165: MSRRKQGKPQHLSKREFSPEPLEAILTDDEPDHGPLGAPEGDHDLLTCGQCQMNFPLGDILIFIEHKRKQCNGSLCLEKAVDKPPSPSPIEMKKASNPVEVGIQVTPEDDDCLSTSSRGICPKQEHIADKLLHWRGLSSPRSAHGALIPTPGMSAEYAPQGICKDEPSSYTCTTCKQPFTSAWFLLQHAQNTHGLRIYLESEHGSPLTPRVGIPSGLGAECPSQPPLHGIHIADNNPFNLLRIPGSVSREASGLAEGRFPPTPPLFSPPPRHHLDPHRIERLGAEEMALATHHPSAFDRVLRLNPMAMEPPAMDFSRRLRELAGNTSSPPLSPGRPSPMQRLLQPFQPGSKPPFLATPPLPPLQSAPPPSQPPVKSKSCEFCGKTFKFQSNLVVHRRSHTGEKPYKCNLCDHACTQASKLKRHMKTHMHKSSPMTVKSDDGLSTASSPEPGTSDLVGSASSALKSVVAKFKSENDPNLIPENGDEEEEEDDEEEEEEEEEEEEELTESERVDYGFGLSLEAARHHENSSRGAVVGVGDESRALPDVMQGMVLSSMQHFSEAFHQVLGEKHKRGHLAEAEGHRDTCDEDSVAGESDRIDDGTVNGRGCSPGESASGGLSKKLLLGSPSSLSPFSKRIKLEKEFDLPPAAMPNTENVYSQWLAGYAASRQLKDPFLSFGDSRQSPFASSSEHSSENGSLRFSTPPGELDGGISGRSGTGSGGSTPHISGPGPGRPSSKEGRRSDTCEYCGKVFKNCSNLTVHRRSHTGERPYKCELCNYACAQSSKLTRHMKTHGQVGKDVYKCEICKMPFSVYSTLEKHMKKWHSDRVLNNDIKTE
HA-BCL11A-L, in vitro translated, 35S-labeled (Q9H165-2, form named): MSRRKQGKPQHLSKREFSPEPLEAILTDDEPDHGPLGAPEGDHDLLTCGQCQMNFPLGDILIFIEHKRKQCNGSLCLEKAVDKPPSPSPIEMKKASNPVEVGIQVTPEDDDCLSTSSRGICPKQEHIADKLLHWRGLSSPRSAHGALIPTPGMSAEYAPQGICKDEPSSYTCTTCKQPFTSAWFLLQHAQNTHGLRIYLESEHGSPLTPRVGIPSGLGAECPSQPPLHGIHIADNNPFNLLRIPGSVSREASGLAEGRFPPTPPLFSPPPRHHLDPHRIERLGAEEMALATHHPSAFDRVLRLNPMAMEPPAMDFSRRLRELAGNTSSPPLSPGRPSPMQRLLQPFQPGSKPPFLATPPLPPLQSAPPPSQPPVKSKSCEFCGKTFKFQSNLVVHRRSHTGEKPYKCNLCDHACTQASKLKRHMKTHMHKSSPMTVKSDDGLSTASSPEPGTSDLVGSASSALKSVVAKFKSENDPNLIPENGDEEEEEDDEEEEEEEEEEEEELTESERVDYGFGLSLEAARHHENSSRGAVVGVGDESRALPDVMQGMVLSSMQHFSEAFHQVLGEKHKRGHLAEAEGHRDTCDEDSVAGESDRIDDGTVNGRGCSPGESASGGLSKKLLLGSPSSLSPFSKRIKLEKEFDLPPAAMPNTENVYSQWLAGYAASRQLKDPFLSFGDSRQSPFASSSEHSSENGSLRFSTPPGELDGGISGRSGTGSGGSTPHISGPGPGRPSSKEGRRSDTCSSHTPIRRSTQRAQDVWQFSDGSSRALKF

What was measured:
[1] = biological target: Gal4DBD-BCL11A-L, in vitro translated, unlabeled (human) (UniProt Q9H165); assay: co-IP; in vitro translated unlabeled Gal4DBD-BCL11A isoforms and 35S-labeled HA-BCL11A isoforms; anti-Gal4-DBD antibody, IP buffer (50 mM Tris-Cl pH 7.5, 150 mM NaCl, 5 mM MgCl2, 1 mM EDTA, 0.25% NP-40, 1 mM DTT), 1 hr at 4°C, protein A agarose
[2] = biological target: Gal4DBD-BCL11A-XL, in vitro translated, unlabeled (human) (UniProt Q9H165); assay: as above

| binding [1] | binding [2] | Substance |
| --- | --- | --- |
| binds | binds | HA-BCL11A-L, in vitro translated, 35S-labeled (from UniProt Q9H165-2 1-773) |
| – | binds | HA-BCL11A-XL, in vitro translated, 35S-labeled (from UniProt Q9H165-1 1-835) |
